Data as given in PubChem BioAssay AID1224826 (NIAID, 2016).

Screen: 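Knock-downs that raise or lower Tnf reporter signal after endotoxin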 (primary screen)
Cell system: RAW264.7 G9 macrophages from mouse bearing reporters for p65 (GFP) and the Tnf promoter (mCherry)
Knock-down reagent: siRNA pool against mouse genes, 100 nM
Timing: 16 h of LPS stimulation, after 2 days of siRNA transfection
Conditions: bacterial lipopolysaccharide (Salmonella minnesota R595), 10 ng/ml
Measured: 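Nuclear mCherry signal of the Tnf promoter reporter measured by imaging after background removal, scaled to each plate median and turned into robust z-scores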
Reading the numbers: Tnf reporter robust z-score: higher = stronger Tnf promoter reporter signal after LPS
Rule for the call: 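Called active when robust z-score is at most -1.3, matching the median of the Tlr4 knock-down control, or over 3; control wells and wells with under 50 cells never active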
Calls: active = Tnf reporter clearly lowered or raised; inactive = no clear change in Tnf reporter
Shown is an unselected part of about 17,000 deposited reagents. Of all reagents, about 1,110 (6.6%) are marked active. 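Active means lowered or raised reporter signal; replicate intensities are raw and not normalised per plate.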 Unmarked entries are inactive. Some reagents were tested in more than one well and are listed for each. Not all columns of the deposit are shown.

With Nell2, what was measured?
Tnf reporter robust z-score: -0.77; fewer than 50 cells in well: enough cells in well

With Zcchc10, what was measured?
Tnf reporter robust z-score: -0.26; fewer than 50 cells in well: enough cells in well

How did the screen score Nxt1?
Tnf reporter robust z-score: 0.82; fewer than 50 cells in well: enough cells in well

What did the screen give for Dynll2?
fewer than 50 cells in well: fewer than 50 cells per well; well left out of calls

Which result is listed for Or10d4c?
fewer than 50 cells in well: fewer than 50 cells per well; well left out of calls

What did the screen give for Polr1h?
Tnf reporter robust z-score: 0.42; fewer than 50 cells in well: enough cells in well

How did the screen score Diaph2?
Tnf reporter robust z-score: 1.62; fewer than 50 cells in well: enough cells in well

What is on record for Hddc3?
Tnf reporter robust z-score: 0.31; fewer than 50 cells in well: enough cells in well

With Actl6a, how do the results read?
fewer than 50 cells in well: fewer than 50 cells per well; well left out of calls

With Actl6a, what does the deposit list?
Tnf reporter robust z-score: -1.02; fewer than 50 cells in well: enough cells in well

For Yars1, how do the results read?
Tnf reporter robust z-score: -0.41; fewer than 50 cells in well: enough cells in well

Reprinted from the listing for reference:
Nell2 — Tnf reporter robust z-score: -0.77; fewer than 50 cells in well: enough cells in well
Zcchc10 — Tnf reporter robust z-score: -0.26; fewer than 50 cells in well: enough cells in well

Next entries follow.
Which result is listed for Tchp?
Tnf reporter robust z-score: -0.23; fewer than 50 cells in well: enough cells in well

What did the screen give for Slc7a7?
Tnf reporter robust z-score: 1.12; fewer than 50 cells in well: enough cells in well

What did the screen give for Bcar3?
Tnf reporter robust z-score: 1.33; fewer than 50 cells in well: enough cells in well

How did the screen score Tbx21?
Tnf reporter robust z-score: -0.74; fewer than 50 cells in well: enough cells in well

What is on record for Tmem131?
Tnf reporter robust z-score: 1.24; fewer than 50 cells in well: enough cells in well

With Pbx1, how do the results read?
Tnf reporter robust z-score: 0.56; fewer than 50 cells in well: enough cells in well

For Pcsk2, what does the deposit list?
Tnf reporter robust z-score: 0.38; fewer than 50 cells in well: enough cells in well

Which result is listed for Bloc1s6?
Tnf reporter robust z-score: -1.21; fewer than 50 cells in well: enough cells in well

With Csnk2a2, what was measured?
Tnf reporter robust z-score: 0.5; fewer than 50 cells in well: enough cells in well

Which result is listed for Drc3?
fewer than 50 cells in well: fewer than 50 cells per well; well left out of calls
